This is an account of results in patent US8536139B2, “Compositions comprising lipoteichoic acid for use in treating pleural effusion or pneumothorax” (ISIS Innovation Limited, priority 2007, dated 2013).

This series concerns adults with histocytologically proven malignant pleural effusion. Description: Phase I/IIa trial of intrapleural LTA-T: dose escalation and toxicity. The series is classed as in vivo, human. The source says: The study was a phase I/IIa toxicity/non-randomised “proof of concept” efficacy trial. The protocol included administration of an intrapleural saline control followed by seven days pleural fluid production measurement prior to the administration of LTA-T to allow the assessment of any side-effects from LTA-T administration, and both acute pleural fluid production changes and the frequency of long-term pleurodesis efficacy after intrapleural LTA-T (see FIG. 1).
The subjects were adults (aged≧18) with histocytologically proven malignant pleural effusion requiring symptomatic treatment.
After informed consent, an indwelling pleural catheter (PleurX, Denver, Colo.) was placed in the pleural effusion and the pleural space fully drained. Markers of toxicity (clinical symptoms, blood parameters, performance status) were recorded daily on the first 14 days of the study and at intervals thereafter (FIG. 1).
After initial complete fluid drainage, 30 mls intra-pleural saline (saline control) was administered (day 1). The daily pleural fluid drainage was then recorded for seven days to quantify the rate of production of pleural fluid. […]
Patient symptoms, performance status, radiographic pleural fluid recurrence (chest radiograph), adverse events and the clinical need for further pleural fluid drainage was assessed on days 22, 43, 64, 85. […]

lipoteichoic acid T [LTA-T]: where the note is “equating to 750-1500 mcg”, the “Therapeutic dose per kg” value fell in the range of 0.01 to 0.02 mg/kg. For the same substance, the Therapeutic dose (intrapleural, based on detectable systemic inflammation (white cell count rise)) was 750 to 1500 µg.
